Laboratory results reported in PubChem BioAssay AID1543 (National Center for Advancing Translational Sciences (NCATS), 2009).
Inconclusive results, whose numbers are uncertain, are shown with a selection of clear calls. Potencies beside an inconclusive call are fits to weak or partial responses and may not hold up. Calls of active or inactive are those of the source. Calls come from the whole dose curve; as a rule, active = well fitted activation curve with a large enough effect; inconclusive = small, poorly fitted or top-dose-only effect, or effect the other way; inactive = flat fitted curve, though single readings scatter.

By UniProt entry, the sequences of proteins in these tests, tags left out. Where a name states a change or a piece, a line headed by the entry shows the natural chain unless it says otherwise.
UniProt P30613: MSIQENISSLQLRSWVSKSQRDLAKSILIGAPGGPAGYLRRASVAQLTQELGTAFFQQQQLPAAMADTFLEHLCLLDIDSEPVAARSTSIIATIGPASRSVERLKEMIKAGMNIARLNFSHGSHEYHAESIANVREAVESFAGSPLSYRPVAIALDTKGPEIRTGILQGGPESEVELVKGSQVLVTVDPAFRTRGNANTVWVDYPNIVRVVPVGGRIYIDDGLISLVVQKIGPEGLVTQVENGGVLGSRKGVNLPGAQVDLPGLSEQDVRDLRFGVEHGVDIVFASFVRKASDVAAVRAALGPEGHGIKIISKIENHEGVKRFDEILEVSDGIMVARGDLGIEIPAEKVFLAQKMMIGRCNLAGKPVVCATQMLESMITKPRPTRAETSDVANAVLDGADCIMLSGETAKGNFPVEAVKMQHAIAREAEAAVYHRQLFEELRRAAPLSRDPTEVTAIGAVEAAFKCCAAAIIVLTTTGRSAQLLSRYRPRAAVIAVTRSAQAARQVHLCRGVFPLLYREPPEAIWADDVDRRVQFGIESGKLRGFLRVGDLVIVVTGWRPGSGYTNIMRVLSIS

These molecules were tested against Pyruvate kinase PKLR (Homo sapiens) (UniProt P30613) (assay: Secondary assay for Activators of Human Reticulocyte Pyruvate Kinase). Conditions: purified hPK-R, LDH-coupled NADH fluorescence kinetic; activation: at 57.5 µM (top of the series).
From the text: Confirmatory assay NIH Chemical Genomics Center [NCGC] Wael M. Rabeh, Lyudmila Nedyalkova and Hee-Wan Park [Structural Genomics Consortium, 100 College St. Toronto, Ontario, Canada] NCGC Assay Overview: Human pyruvate kinase reticulocyte (hPK-R) enzyme was supplied as a highly purified (>95% pure) preparation from Structural Genomics Consortium in Toronto (Ontario, Canada) and a secondary assay was used to evaluate compounds. This assay couples the formation of pyruvate from hPK-R using lactate dehydrogenase (LDH) and NADH. The depletion of NADH is followed in a fluorescent-based kinetic assay that follows the formation of pyruvate to lactate, as catalyzed LDH. Pyruvate kinase substrates, PEP and ADP, were present in the assay at 0.1 mM and 4 mM respectively. In this kinetic assay initial rates were determined by following the fluorescence of NADH depletion.
NCGC Assay Protocol Summary: Three uL of substrate mix (final concentration, 50 mM Tris-Cl pH 8.0, 200 mM KCl, 15 mM MgCl2, 0.1 mM PEP, 4.0 mM ADP, and 0.2 mM NADH) was dispensed into black-solid 1536 well plates. 23 nL of compounds were delivered by a pin tool and 1 uL of enzyme mix (final concentrations, 10 nM hPK-R and 1 uM of LDH) was added. Plates were immediately placed in ViewLux (Perkin Elmer) and NADH fluorescence was determined at 30 second exposure intervals for between 3 and 6 minutes. Data were normalized to the uninhibited and EC100 activation using known activators such as fructose-bis-phosphate.

Compound | Potency | activation
Cc1cc2c(s1)c1cnn(Cc3cc(C(F)(F)F)cc(Cl)c3F)c(=O)c1n2C | inconclusive: 2510 nM [rising, full curve] | 
COc1ccc(Cn2ncc3c4sc(C)cc4n(C)c3c2=O)cc1F | inconclusive: 631 nM [rising, full curve, poor fit] | 
O=S(=O)(c1ccc2c(c1)OCCO2)N1CCN(S(=O)(=O)c2c(F)cccc2F)CC1 |  | inactive: -2.1%
Cc1cc2c(s1)c1cnn(-c3ccccc3)c(=O)c1n2C | inconclusive: 1.3 nM [inhibitor] | 
COc1cccc(S(=O)(=O)N2CCN(S(=O)(=O)c3ccc4c(c3)OCCO4)CC2)c1 | inconclusive: 25.1 nM [rising, full curve, poor fit] | 
O=S(=O)(c1ccc2c(c1)OCCO2)N1CCN(S(=O)(=O)c2ccccn2)CC1 | inconclusive: 89.1 nM [rising, full curve, poor fit] | 
O=C1CN(S(=O)(=O)c2ccc3c(c2)OCCO3)CCN1S(=O)(=O)c1c(F)cccc1F | inconclusive: 3.2 nM [rising, full curve, poor fit] | 
Cc1cc2c(s1)c1cnn(Cc3ccccc3)c(=O)c1n2C | inconclusive: 3980 nM [rising, full curve] | 
Cc1cc2c(s1)c1cnn(Cc3ccc(C(F)(F)F)cc3F)c(=O)c1n2C | inconclusive: 5620 nM [inhibitor, full curve, poor fit] | 
CC(=O)c1cc2c(s1)c1cnn(Cc3ccccc3F)c(=O)c1n2C | active: 631 nM | 
O=C(c1ccc2c(c1)OCCO2)N1CCN(S(=O)(=O)c2c(F)cccc2F)CC1 |  | inactive: 14.2%
Cc1cc2c(s1)c1c(C)nn(Cc3ccccc3F)c(=O)c1n2C | inconclusive: 1260 nM [inhibitor, full curve, poor fit] | 
O=S(=O)(c1ccc2c(c1)OCCO2)N1CCN(S(=O)(=O)c2cc(F)c(F)cc2F)CC1 | inconclusive: 1000 nM [rising, partial curve, poor fit] | 
Cc1cc2c(s1)c1cnn(Cc3cccc(Cl)c3)c(=O)c1n2C | inconclusive: 1410 nM [rising, full curve] | 
O=S(=O)(NC1CCC(NS(=O)(=O)c2c(F)cccc2F)CC1)c1ccc2c(c1)OCCO2 (stereo not given) | inactive | 
CSc1cc2c(s1)c1cnn(Cc3ccccc3F)c(=O)c1n2C | active: 708 nM | 
Cc1cc2c(s1)c1cnn(Cc3ccc(F)cc3F)c(=O)c1n2C | inconclusive: 1000 nM [rising, full curve] | 
Cn1ccc2cc(S(=O)(=O)N3CCN(S(=O)(=O)c4c(F)cccc4F)CC3)ccc21 | inconclusive: 17800 nM [rising, partial curve, poor fit] | 
N#Cc1ccc(S(=O)(=O)N2CCN(S(=O)(=O)c3ccc4c(c3)OCCO4)CC2)cc1 |  | inconclusive: 18.3%
CC(C)c1cc2c(s1)c1cnn(Cc3ccccc3F)c(=O)c1n2C | active: 4470 nM | 

Two compounds drawn at random from those above, as already listed:
Compound | Potency | activation
Cc1cc2c(s1)c1cnn(Cc3cc(C(F)(F)F)cc(Cl)c3F)c(=O)c1n2C | inconclusive: 2510 nM [rising, full curve] | 
Cc1cc2c(s1)c1cnn(Cc3cccc(Cl)c3)c(=O)c1n2C | inconclusive: 1410 nM [rising, full curve] | 

(continued)

Compound | Potency | activation
Cn1c2ccsc2c2cnn(Cc3ccccc3F)c(=O)c21 | active: 14100 nM | 
O=C(c1c(F)cccc1F)N1CCN(S(=O)(=O)c2ccc3c(c2)OCCO3)CC1 |  | inactive: 12%
Cc1nc2ccc(S(=O)(=O)N3CCN(S(=O)(=O)c4c(F)cccc4F)CC3)cc2s1 | inconclusive: 708 nM [rising, full curve] | 
Cc1cc2c(s1)c1cnn(Cc3ccc(Cl)cc3)c(=O)c1n2C | inconclusive: 35500 nM [rising, partial curve, poor fit] | 
O=S(=O)(c1ccc(F)cc1)N1CCN(S(=O)(=O)c2ccc3c(c2)OCCO3)CC1 | inconclusive: 44.7 nM [rising, full curve, poor fit] | 
CC(=O)Nc1cc2c(s1)c1cnn(Cc3ccccc3F)c(=O)c1n2C | inconclusive: 4470 nM [inhibitor, full curve, poor fit] | 
COc1cc2c(s1)c1cnn(Cc3ccccc3F)c(=O)c1n2C | inconclusive: 1120 nM [rising, full curve, poor fit] | 
CCCc1cc(F)c(S(=O)(=O)N2CCN(S(=O)(=O)c3ccc4c(c3)OCCO4)CC2)cc1F | inconclusive: 6.3 nM [rising, full curve, poor fit] | 
Cc1cc2c(s1)c1cnn(Cc3ccc(C)c(F)c3F)c(=O)c1n2C | inconclusive: 44.7 nM [rising, full curve, poor fit] | 
Cc1cc2c(s1)c1cnn(Cc3ccc(C(C)C)cc3)c(=O)c1n2C | inconclusive: 7940 nM [rising, full curve] | 
O=S(=O)(NC1CCN(S(=O)(=O)c2c(F)cccc2F)C1)c1ccc2c(c1)OCCO2 (stereo not given) | inconclusive: 0.1 nM | 
O=S(=O)(c1ccc(Cl)cc1)N1CCN(S(=O)(=O)c2ccc3c(c2)OCCO3)CC1 |  | inactive: 8.08%
CCc1cc2c(s1)c1cnn(Cc3ccccc3F)c(=O)c1n2C | active: 5620 nM | 
O=S(=O)(c1ccc2c(c1)OCCO2)N1CCN(S(=O)(=O)c2c(F)ccc(O)c2F)CC1 |  | inactive: 14.9%
Cn1c2cc(CO)sc2c2cnn(Cc3ccccc3F)c(=O)c21 | inconclusive: 1120 nM [rising, full curve, poor fit] | 
O=S(=O)(NCC1CN(S(=O)(=O)c2c(F)cccc2F)C1)c1ccc2c(c1)OCCO2 | inconclusive: 158 nM [rising, full curve, poor fit] | 
O=S(=O)(c1cccc(C(F)(F)F)c1)N1CCN(S(=O)(=O)c2ccc3c(c2)OCCO3)CC1 | inconclusive: 2240 nM [rising, full curve, poor fit] | 
Cc1cc2c(s1)c1cnn(Cc3c(F)c(F)cc(F)c3F)c(=O)c1n2C |  | inactive: 17.4%
C[C@H]1CN(S(=O)(=O)c2c(F)cccc2F)CCN1S(=O)(=O)c1ccc2c(c1)OCCO2 |  | inactive: 11.4%
Cc1cc2c(s1)c1cnn(Cc3ccc(-c4ccccc4)cc3)c(=O)c1n2C | inconclusive: 25100 nM [rising, partial curve, poor fit] | 
